Test results taken from PubChem BioAssay AID206 (DTP/NCI, 2004).
The list does not hold the whole screen: it is rich in T/C values a quarter to a half above the control, in often repeated tests (any T/C) and in doses without a T/C. Further doses and runs are listed elsewhere. T/C gives the treated animals as a percentage of the vehicle group. Schedule codes are those of the source, read here as Q, the interval in days (D) or hours (H), X, the number of doses. Some structures stand for samples that the source files as different forms (salt, stereo form or complex); doses refer to the form tested. Some T/C values are followed by the survivors on the day toxicity was checked, most often the fifth; where none is given, no animal had died by that day. Some doses have a count of surviving animals in place of a T/C: the source holds a T/C of zero for them, seemingly a mark for toxic or unscored doses. Counts of survivors are from the toxicity check (mostly the fifth day) where no day follows; animals may have died later. Some entries were tested several times; their values stand side by side, smallest first.

System: nude mice, HT29 intrarenal xenograft, tumor weight T/C
Test: NCI In Vivo Anticancer Drug Screen. Data for tumor model HT29;CX-1 Human Adenocarcinoma (MER+) (intrarenal inoculation) in NU/NU Swiss (nude) mice
Details: T/C endpoint: mean tumor weight change, higher T/C = larger tumour
Protocol: The antitumor activity of compounds was measured in mice bearing transplantable tumors. Survival or tumor size were measured and the results are expressed as the measurement made in the treated group (T) divided by the measurement made in the vehicle treated control group (C). The tumor model used in this assay is HT29;CX-1 Human Adenocarcinoma (MER+) (intrarenal inoculation) in NU/NU Swiss (nude) mice

[1] = dose: 600.0 mg/kg/injection, schedule: Q04DX004 (sc), vehicle: suspension in saline
[2] = dose: 1200.0 mg/kg/injection, schedule: Q04DX004 (sc), vehicle: suspension in saline
[3] = dose: 200.0 mg/kg/injection, schedule: Q04DX004 (sc), vehicle: saline
[4] = dose: 1200.0 mg/kg/injection, schedule: Q04DX004 (sc), vehicle: Klucel (hydroxypropylcellulose) (HPC)

## COC1=C(C)C(=O)C2=C(C1=O)C1C3CC4=C(C(=O)C(OC)=C(C)C4=O)C(CNC(=O)C(C)=O)N3C(C#N)C(C2)N1C (stereo unspecified)
dose: 4.0 mg/kg/injection, schedule: Q04DX004 (sc), vehicle: Klucel (hydroxypropylcellulose) (HPC), evaluated on day 15
  T/C: 141 % of control [4 of 6 alive on day 15]
dose: 8.0 mg/kg/injection, schedule: Q04DX004 (sc), vehicle: Klucel (hydroxypropylcellulose) (HPC)
  survivor count: 1 of 6 on day 15

## O=c1cc(-c2ccccc2)[nH]c2c1CCCC2
dose: 300.0 mg/kg/injection, schedule: Q04DX004 (sc), vehicle: saline with Tween-80, evaluated on day 15
  T/C: 127 % of control

## C=C1CC2(OC1=O)C(=O)N(C)c1ccc(I)cc12 (stereo unspecified)
[1]
  survivor count: 3 of 6 on day 15
[2]
  survivor count: 2 of 6 on day 15
dose: 2400.0 mg/kg/injection, schedule: Q04DX004 (sc), vehicle: suspension in saline
  survivor count: 1 of 6 on day 15

## CC1=C[S+](c2ccccc2)c2cccc3cc4ccccc4c1c23 (stereo unspecified)
dose: 32.0 mg/kg/injection, schedule: Q04DX004 (sc), vehicle: saline with Tween-80
  survivor count: 3 of 6 on day 15
dose: 64.0 mg/kg/injection, schedule: Q04DX004 (sc), vehicle: saline with Tween-80
  survivor count: 0 of 6 on day 15

## COc1cccc2c1C(=N)c1c(O)c3c(c(O)c1C2=O)C[C@@](O)(C(C)=O)C[C@@H]3OC1CC(N)C(O)C(C)O1 (stereo partly specified)
dose: 10.0 mg/kg/injection, schedule: Q04DX004 (sc), vehicle: water
  survivor count: 1 of 2 on day 15
dose: 40.0 mg/kg/injection, schedule: Q04DX004 (sc), vehicle: water
  survivor count: 0 of 1 on day 15 and 0 of 3 on day 15
dose: 80.0 mg/kg/injection, schedule: Q04DX004 (sc), vehicle: water
  survivor count: 0 of 3 on day 15
dose: 160.0 mg/kg/injection, schedule: Q04DX004 (sc), vehicle: water
  survivor count: 0 of 3 on day 15

## COc1cc([C@@H]2c3cc4c(cc3[C@@H](OC3OC5COC(C)OC5C(O)C3O)[C@H]3COC(=O)[C@H]23)OCO4)cc(OC)c1O (stereo partly specified)
dose: 8.0 mg/kg/injection, schedule: Q01DX010 (sc), vehicle: saline, evaluated on day 11
  T/C: 144 % of control
dose: 16.0 mg/kg/injection, schedule: Q01DX010 (sc), vehicle: saline, evaluated on day 11
  T/C: 143 % of control

## c1cc(-c2cc3ccc(C4=NCCN4)cc3[nH]2)ccc1C1=NCCN1
[3]
  survivor count: 0 of 5 on day 15

## [N-]=[N+]=C1N=CN=C1c1ncn[nH]1
dose: 50.0 mg/kg/injection, schedule: Q01DX010 (sc), vehicle: Klucel (hydroxypropylcellulose) (HPC)
  survivor count: 1 of 3 on day 11
dose: 100.0 mg/kg/injection, schedule: Q01DX010 (sc), vehicle: Klucel (hydroxypropylcellulose) (HPC)
  survivor count: 0 of 3 on day 11

## O=c1[nH]cnc2n[nH]nc12
[4]
  survivor count: 2 of 5 on day 15

## CC1(C)OC1CS(=O)c1ccccc1 (stereo unspecified)
dose: 100.0 mg/kg/injection, schedule: Q04DX004 (sc), vehicle: saline with Tween-80, evaluated on day 15
  T/C: 130 % of control [4 of 6 alive on day 15]

## O=C([CH-]C(=O)C(F)(F)F)c1ccccc1.O=C([CH-]C(=O)C(F)(F)F)c1ccccc1.O=C([CH-]C(=O)C(F)(F)F)c1ccccc1.O=C([CH-]C(=O)C(F)(F)F)c1ccccc1.[Eu+3].c1ccncc1
dose: 1600.0 mg/kg/injection, schedule: Q01DX010 (sc), vehicle: Klucel (hydroxypropylcellulose) (HPC)
  survivor count: 1 of 3 on day 11

## CC(Cc1ccc(O)c(O)c1)C(C)Cc1ccc(O)c(O)c1 (stereo unspecified)
dose: 1200.0 mg/kg/injection, schedule: Q04DX004 (sc), vehicle: saline + alcohol, evaluated on day 15
  T/C: 142 % of control

## COCC(O)Cn1ccnc1[N+](=O)[O-] (stereo unspecified)
dose: 2400.0 mg/kg/injection, schedule: Q04DX004 (sc), vehicle: suspension in saline, evaluated on day 15
  T/C: 138 % of control [4 of 6 alive on day 15]

## CN(CCN(C)C(=O)CCOS(C)(=O)=O)C(=O)CCOS(C)(=O)=O
dose: 300.0 mg/kg/injection, schedule: Q04DX004 (sc), vehicle: saline
  survivor count: 0 of 6 on day 15
dose: 600.0 mg/kg/injection, schedule: Q04DX004 (sc), vehicle: saline
  survivor count: 0 of 6 on day 15

## COc1cccc2c1C(=O)c1c(O)c3c(c(O)c1C2=O)C[C@H](O)C[C@@H]3OC1CC(N)C(O)C(C)O1 (stereo partly specified)
dose: 100.0 mg/kg/injection, schedule: Q01DX010 (sc), vehicle: saline
  survivor count: 0 of 6 on day 20

## CC1(C)OC(=O)N(CO)C1=O
dose: 100.0 mg/kg/injection, schedule: Q01DX010 (sc), vehicle: saline, evaluated on day 20
  T/C: 128 % of control

## Ic1ncnc2c1ncn2C1CCCO1 (stereo unspecified)
[4]
  survivor count: 2 of 5 on day 15

## CNc1nc(N(C)C)nc(N(C)C)n1
dose: 120.0 mg/kg/injection, schedule: Q01DX010 (sc), vehicle: water
  survivor count: 1 of 3 on day 11
dose: 240.0 mg/kg/injection, schedule: Q01DX010 (sc), vehicle: water
  survivor count: 0 of 3 on day 11

## CCCCCCCCCCS(=O)CC(CO)NC(=O)/C=C/c1c(C)[nH]c(=O)[nH]c1=O (stereo unspecified)
dose: 75.0 mg/kg/injection, schedule: Q04DX004 (sc), vehicle: distilled water + Tween-80
  survivor count: 0 of 6 on day 15

## COc1cc(NCc2ccc3nc(N)nc(N)c3c2C)cc(OC)c1OC
dose: 4.7 mg/kg/injection, schedule: Q04DX004 (sc), vehicle: water, evaluated on day 15
  T/C: 130 % of control
dose: 10.0 mg/kg/injection, schedule: Q01DX010 (sc), vehicle: sodium bicarbonate
  survivor count: 0 of 2 on day 11 and 0 of 3 on day 11
dose: 75.0 mg/kg/injection, schedule: Q04DX004 (sc), vehicle: water
  survivor count: 3 of 6 on day 15
dose: 150.0 mg/kg/injection, schedule: Q04DX004 (sc), vehicle: water
  survivor count: 0 of 6 on day 15
dose: 300.0 mg/kg/injection, schedule: Q04DX004 (sc), vehicle: water
  survivor count: 0 of 6 on day 15
dose: 600.0 mg/kg/injection, schedule: Q04DX004 (sc), vehicle: water
  survivor count: 0 of 6 on day 15

## N#Cc1cn(C2OC(CO)C(O)C2O)c2ncnc(N)c12 (stereo unspecified)
dose: 1.0 mg/kg/injection, schedule: Q01DX010 (sc), vehicle: saline
  survivor count: 0 of 2 on day 11 and 1 of 3 on day 11
dose: 2.0 mg/kg/injection, schedule: Q01DX010 (sc), vehicle: saline
  survivor count: 0 of 3 on day 11
dose: 4.0 mg/kg/injection, schedule: Q01DX010 (sc), vehicle: saline
  survivor count: 0 of 3 on day 11

## COc1ccc2c(c1)CCC(c1ccccc1)=C2c1ccc(OCCN2CCCC2)cc1
dose: 100.0 mg/kg/injection, schedule: Q04DX004 (sc), vehicle: Klucel (hydroxypropylcellulose) (HPC), evaluated on day 15
  T/C: 127 % of control

## CC(=O)NC(C=O)OCC=O (stereo unspecified)
dose: 50.0 mg/kg/injection, schedule: Q04DX004 (sc), vehicle: water, evaluated on day 15
  T/C: 128 % of control
dose: 400.0 mg/kg/injection, schedule: Q04DX004 (sc), vehicle: water, evaluated on day 15
  T/C: 141 % of control

## CC(C)NCC(O)COc1ccc(O)c(O)c1 (stereo unspecified)
dose: 24.0 mg/kg/injection, schedule: Q04DX004 (sc), vehicle: saline, evaluated on day 15
  T/C: 129 % of control
dose: 25.0 mg/kg/injection, schedule: Q04DX004 (sc), vehicle: saline
  survivor count: 0 of 6 on day 15
dose: 50.0 mg/kg/injection, schedule: Q04DX004 (sc), vehicle: saline
  survivor count: 0 of 6 on day 15
dose: 100.0 mg/kg/injection, schedule: Q04DX004 (sc), vehicle: saline
  survivor count: 0 of 6 on day 15
dose: 150.0 mg/kg/injection, schedule: Q04DX004 (sc), vehicle: suspension in saline
  survivor count: 0 of 6 on day 15
[3]
  survivor count: 0 of 6 on day 15
dose: 300.0 mg/kg/injection, schedule: Q04DX004 (sc), vehicle: suspension in saline
  survivor count: 0 of 6 on day 15
[1]
  survivor count: 0 of 6 on day 15
[2]
  survivor count: 0 of 5 on day 15

## Nc1ncn(C2CC(O)C(CO)O2)c(=O)n1 (stereo unspecified)
dose: 0.4 mg/kg/injection, schedule: Q01DX010 (sc), vehicle: saline
  survivor count: 0 of 3 on day 11
dose: 0.8 mg/kg/injection, schedule: Q01DX010 (sc), vehicle: saline
  survivor count: 0 of 3 on day 11
dose: 1.6 mg/kg/injection, schedule: Q01DX010 (sc), vehicle: saline
  survivor count: 0 of 3 on day 11

## CNC(=O)c1cccc2c(Nc3ccc(NS(C)(=O)=O)cc3OC)c3cccc(C)c3nc12
dose: 200.0 mg/kg/injection, schedule: Q04DX004 (sc), vehicle: other
  survivor count: 1 of 3 on day 15

## CCC[CH2][Hg][Cl]
dose: 75.0 mg/kg/injection, schedule: Q04DX004 (sc), vehicle: Klucel (hydroxypropylcellulose) (HPC)
  survivor count: 0 of 6 on day 15
